# Measured values reported in PubChem BioAssay AID651640 (Broad Institute, 2012).
# Several values for one entry are separate records, joined by “and”; a condition that tells them apart may be missing. Identical values can stand only once. Screen size: about 350,000 compounds; about 6,000 (1.7%) were called active. Inconclusive means that the source gave no clear call. Such entries were picked first, then a sample of the others. Cut-off read from the data, not from the text of the source: active = CPE inhibition above about 20% (passing the limit was not always enough); inconclusive = no clear call, values can overlap the other calls; tested in BHK-21 cells.
# Assay: protection of cells from dengue 2 killing – plate reader, single concentration, primary screen (AID 651640);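 note: 0% = median of neutral control wells and 100% = median of positive control wells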
# Details: DENV2-infected cells, cytopathic effect rescue, at 9.99 µM, stronger effect = higher value
row,SMILES,CPE inhibition
1,C/C=C/c1ccc([C@H]2[C@H](CO)N(C(=O)c3cnccn3)C23CN(C(=O)C2CC2)C3)cc1,active: 33.4%
2,Cc1c(C(=O)N(Cc2ccc(Cl)cc2)C2CCS(=O)(=O)C2)oc2ccccc12 (stereo not given),inconclusive: 21.1%
3,CCCCCc1cc(=O)oc2c(C(CCN(CC)CC)c3ccc(OC)cc3)c(OC)cc(OC)c12 (stereo not given),inconclusive: 42.4%
4,COc1cccc(S(=O)(=O)N(C)C[C@H]2Oc3cc(C4=CCCCC4)ccc3S(=O)(=O)N([C@H](C)CO)C[C@@H]2C)c1,inactive: 3.79%
5,N#Cc1ccc(C(=O)Nc2cc(C3CC3)nn2-c2ccccc2)cc1,active: 22.1%
6,Cc1ccc(S(=O)(=O)N(C)C[C@H]2OCCCC[C@H](C)Oc3ccc(NS(=O)(=O)c4cn(C)cn4)cc3C(=O)N([C@@H](C)CO)C[C@@H]2C)cc1,inactive: 5.95%
7,C[C@@H]1CCCCO[C@@H](CN(C)CC2CCCCC2)[C@H](C)CN([C@H](C)CO)C(=O)c2cc(NC(=O)Nc3cccc4ccccc34)ccc2O1,active: 118%
8,C[C@H](CO)N1C[C@H](C)[C@H](CN(C)S(=O)(=O)c2ccccc2)Oc2ccc(NC(=O)Nc3ccc(F)cc3)cc2C1=O,inconclusive: 28.9%
9,NC1=NC(=O)/C(=C\c2ccco2)S1,inconclusive: 34.6%
10,CCOc1ccc(NC(=O)CN(C)C(=O)c2ccc(COc3ccccc3)o2)cc1OCC,inconclusive: 52.5%
11,C#CCNC(=O)C1=C[C@@H](c2ccccc2)C[C@@H](OCCCCO)O1,inactive: 16.4% and inactive: -14.2%
12,C[C@H](CO)N1C[C@H](C)[C@@H](CN(C)Cc2ccc(Cl)c(Cl)c2)Oc2ccc(NC(=O)Cn3cnnn3)cc2C1=O,inconclusive: 27.6%
13,C[C@@H]1CN([C@H](C)CO)C(=O)c2cc(NS(=O)(=O)c3ccc(F)cc3)ccc2O[C@H]1CN(C)Cc1ccc(-c2ccccc2)cc1,active: 30.3%
14,CCOC(=O)C1=CCN(S(=O)(=O)c2ccc(Br)cc2)C1c1cccc(F)c1 (stereo not given),inactive: 6.78%
15,C[C@H]1CN([C@@H](C)CO)C(=O)c2cc(NS(=O)(=O)c3ccc(Cl)cc3)ccc2O[C@H]1CN(C)S(=O)(=O)c1cccs1,active: 21.9%
16,C[C@H](CO)N1C[C@H](C)[C@H](CN(C)S(C)(=O)=O)Oc2ccc(NC(=O)CCCN(C)C)cc2C1=O,inconclusive: 22.6%
17,Cc1ccc(-c2nnc(N3CCOCC3)c3ccccc23)cc1S(=O)(=O)N(C)C,inconclusive: 30.5%
18,Cc1[nH][nH]c(=O)c1C=NCc1ccc(Cl)cc1,inactive: 0.824%
19,O=C(CSCc1ccc(F)cc1)NCc1ccc2c(c1)OCO2,inconclusive: 20.1%
20,COc1ccccc1NC(=O)COc1ccccc1C(=O)Nc1ccccc1,inconclusive: 28%
21,C[C@@H]1CN([C@@H](C)CO)C(=O)Cc2cc(NS(C)(=O)=O)ccc2O[C@@H]1CN(C)C(=O)Nc1ccccc1,inactive: -0.718%
22,CCOc1ccccc1OCC(=O)Nc1ccc(N2CCOCC2)cc1N1CCOCC1,inconclusive: 35.3%
23,Fc1cccc(CN2C[C@@H]3N[C@H](C2)C3c2ccc(-c3cncnc3)cc2)c1 (stereo not given in full),inconclusive: 26.7%
24,COc1ccc(Cc2noc(CN3CCN(Cc4cccc(Cl)c4)CC3)n2)cc1OC,inactive: -2.27%

row,SMILES,CPE inhibition
1,COc1ccc(S(=O)(=O)N(C)C[C@H]2Oc3ccc(N(C)C)cc3CC(=O)N([C@@H](C)CO)C[C@H]2C)cc1,inactive: -8.29%
2,O=C(NC1CCCCC1)N1CC(=O)N2[C@H](C1)[C@@H](c1ccc(-c3cccnc3)cc1)[C@@H]2CO,inconclusive: 76.8%
3,CCCn1c(SCC(=O)N2CCN(C(=O)c3ccco3)CC2)nc2ccccc2c1=O,inconclusive: 21.6%
4,O=C(C[C@H]1C=C[C@H](NC(=O)Cc2ccccn2)[C@@H](CO)O1)NCCc1ccncc1,active: 23.2%
5,C[C@@H]1CN([C@H](C)CO)S(=O)(=O)c2ccc(C3=CCCCC3)cc2O[C@H]1CN(C)C(=O)Cc1ccccc1,inactive: 8.69%
6,C[C@H](CO)N1C[C@H](C)[C@H](CN(C)CC2CCCCC2)Oc2c(NS(C)(=O)=O)cccc2C1=O,inactive: 11%
7,COc1ccc(C(=O)NCC2CCN(C(=O)C(=O)c3cc4ccccc4o3)CC2)cc1,inactive: 18.5%
8,C/C=C/c1ccc([C@H]2[C@@H](CO)N3CCCCN(C(=O)Nc4cc(F)ccc4F)C[C@H]23)cc1,inactive: -29.5%
9,Cc1noc(NS(=O)(=O)c2ccc(NC(=O)c3cc(-c4ccccc4Cl)nc4ccccc34)cc2)c1C,inactive: -3.97%
10,CCc1ccc(NC(=O)C2CCN(c3c(N4CCCC4)c(=O)c3=O)CC2)cc1,inconclusive: 28.8%
11,Cc1ccc(S(=O)(=O)N2CCOCC2)cc1NC(=O)COC(=O)c1n[nH]c(=O)c2ccccc12,inactive: -3.07%
12,CCN1C[C@@H]2[C@@H]3C(=O)N(C)C(=O)[C@@H]3[C@](C)(C1=O)N2C(=O)c1ccc(Br)cc1,inconclusive: 48.2%
13,Cc1ccccc1-c1ccccc1[C@@H]1[C@@H](C#N)N(C(=O)c2ccccc2)[C@H]1CO,inactive: -1.77%
14,C[C@H](CO)N1C[C@H](C)[C@@H](CN(C)S(C)(=O)=O)Oc2ccc(NS(=O)(=O)c3ccccc3)cc2CC1=O,active: 70.2%
15,CCCN1[C@@H]2c3ccc(-c4cccc(F)c4)c(=O)n3C[C@H]1[C@H](CO)[C@H]2C(=O)N(C)C,inconclusive: 42.8%
16,O=c1cc(Cl)[nH]c(=O)n1Cc1ccc(F)cc1,inactive: 4.71%
17,O=[N+]([O-])c1c(NCc2ccco2)ncnc1NCc1ccco1,inconclusive: 20.4%
18,CNC[C@@H]1OCCCC[C@H](C)Oc2ccc(NS(=O)(=O)c3c(C)noc3C)cc2C(=O)N([C@H](C)CO)C[C@@H]1C,inactive: -9.44%
19,Cc1ccccc1S(=O)(=O)N[C@H]1CC[C@H](CCn2cc(-c3ccc(F)cc3)nn2)O[C@@H]1CO,inconclusive: 27.7%
20,COc1ccc(NC(=S)Nc2cccc3ccccc23)cc1OC,inconclusive: 25%
21,Cc1ccc(NCCN(C)C)c2c(=O)c3cc(O)ccc3sc12,inactive: -1.08%
22,CCS(=O)(=O)N1CCCCN2[C@H](C1)[C@@H](c1ccc(C#Cc3ccccc3OC)cc1)[C@@H]2CO,active: 40.1%
23,Cc1noc(C)c1NC(=O)Nc1ccc2c(c1)C(=O)N([C@H](C)CO)C[C@@H](C)[C@H](CN(C)C(=O)NC1CCCCC1)O2,inactive: 0.418%
24,COc1ccc(NC(=O)N(C)C[C@H]2OCCCC[C@@H](C)Oc3ccc(NC(=O)CCC(F)(F)F)cc3C(=O)N([C@@H](C)CO)C[C@H]2C)cc1,active: 20.9%

row,SMILES,CPE inhibition
1,C[C@H]1CN([C@@H](C)CO)C(=O)c2cc(C#Cc3cccc(F)c3)cnc2O[C@H]1CN(C)Cc1ccccn1,inconclusive: 23.3%
2,COc1ccc(CN(C)C[C@H]2OCCCC[C@@H](C)Oc3ccc(NS(=O)(=O)c4cn(C)cn4)cc3C(=O)N([C@H](C)CO)C[C@@H]2C)cc1,active: 52.5%
3,COC(=O)c1cccc2c([N+](=O)[O-])c(NC(C)=O)cc(C(=O)OC)c12,inconclusive: 45.3%
4,Cc1cc(S(=O)(=O)NCc2cccnc2)ccc1F,inactive: 3.22%
5,CC(Oc1cccnc1[N+](=O)[O-])C(=O)Nc1ccc(F)cc1 (stereo not given),inconclusive: 36%
6,COc1ccc(NC(=O)C2(C)CCN2CCOc2ccc(C)cc2)cc1OC (stereo not given),inconclusive: 21.2%
7,Cc1cccc(C(=O)N(CC(=O)Nc2sc(C)c(C)c2C(N)=O)C2CCCC2)c1,inconclusive: 20.6%
8,C[C@H]1CCCCO[C@H](CN(C)C(=O)c2ccccc2)[C@@H](C)CN([C@@H](C)CO)C(=O)c2cc(NC(=O)Nc3ccc(F)cc3)ccc2O1,active: 27.8%
9,CCC(=O)N1CCc2cc(Br)cc(S(=O)(=O)NCCN3CCCC3)c21,inconclusive: 43.7%
10,COc1ccc(NC(=O)Nc2ccc3c(c2)C(=O)N([C@@H](C)CO)C[C@H](C)[C@H](CN(C)Cc2ccc(C(=O)O)cc2)OCCCC[C@@H](C)O3)cc1,active: 59.4%
11,COCCNC(=S)N1CCN(c2nc3ccccc3s2)CC1,inactive: 4.23%
12,COc1cccc(CNS(=O)(=O)c2cc(Br)ccc2Br)c1OC,inconclusive: 43.5%
13,Cc1ccc(S(=O)(=O)Nc2ccc3c(c2)C(=O)N([C@@H](C)CO)C[C@@H](C)[C@@H](CN(C)C(=O)c2ccncc2)OCCCC[C@@H](C)O3)cc1,inconclusive: 56.2%
14,CNC[C@H]1Oc2ccc(NC(=O)CCN3CCOCC3)cc2CC(=O)N([C@@H](C)CO)C[C@H]1C,inconclusive: 20.7%
15,CS(=O)(=O)N1[C@H](C#N)[C@@H](c2ccc(C#Cc3cccc(F)c3)cc2)[C@@H]1CO,inconclusive: 33.1%
16,CN1C(=O)C(CC#N)(C2(CC#N)C(=O)N(C)c3ccccc32)c2ccccc21 (stereo not given),inconclusive: 67.4%
17,COCC#Cc1cnc2c(c1)C(=O)N([C@H](C)CO)C[C@@H](C)[C@H](CN(C)C(=O)c1ccc(F)cc1)O2,inconclusive: 26.4%
18,Cc1ccc(C(=O)NCC(=O)NCC(c2ccco2)N2CCCCC2)cc1C (stereo not given),inactive: -5.42%
19,CCCOC(=O)c1c(NC(=O)c2cnn3c2NC(c2ccccc2)CC3C(F)(F)F)sc2c1CCCC2 (stereo not given),active: 84.1%
20,CC(C)c1cc(-c2cc(-c3ccc(Cl)cc3)on2)nc(NCC2CC2)n1,inconclusive: 20.8%
21,Cn1cc(Br)c(C(=O)N/N=C/c2cccc(OC3CSC3)c2)n1,inconclusive: 40.7%
22,Cc1c(Cl)cnc(NC(=O)COC(=O)c2cccc(S(=O)(=O)N3CCOCC3)c2)c1Cl,inconclusive: 24.9%
